Test results taken from patent US20250339812A1, “ELECTROCHEMICAL DIRECT AIR CAPTURE OF CARBON DIOXIDE USING REVERSIBLE REDOX-ACTIVE MATERIAL” (Massachusetts Institute of Technology, priority 2022, published 2025).

Assay: Carbon dioxide absorption by NRH2 solution from CO2 inlet gas streams
Conditions: for carbon dioxide absorbed: 1 mL of 50 mM NRH2, 15% carbon dioxide

Structure (SMILES): Cc1cc2c(cc1N)Nc1cc(N(C)C)ccc1N2 [NRH2, leuco-neutral red]
- carbon dioxide absorbed: 1.56 equivalent to NRH2
- carbon dioxide absorbed (saturation): 78 µmol
- amount of absorbed carbon dioxide higher than with EDA (15% carbon dioxide inlet gas stream, 50 mM solutions): 56%
